Here are results for two sequences from publication doi:10.64898/2025.12.01.690311.

Construct, isoform or probe ends are uncertain for at least one entry. At least one verdict was read from the data and is not stated in words by the source.

This series has as its system K18. The series can be described thus: BLI. The conditions noted are these: Kd only in heat map; residues 244-372.

As for “AAAAAAAAAAAAAAAAAAAAAAAAAAAAAAAAAAAAAAAA [A40]”, the binding result is “binds”.

On to “UUUUUUUUUUUUUUUUUUUUUUUUUUUUUUUUUUUUUUUU [U40]”, for which the binding result was “binds”.
